Experimental findings from article PMC8447793 are described below.

These are yes or no findings as the source states them, for the method shown. Binding seen in cells or lysates may run through a third protein. Binding can be weak; no strength is given. Sequences can lack the tags named with a protein.

In this assay the target is Raf-1 Ras-binding domain agarose beads (Ras Assay Reagent), P04049. Briefly: pull-down; Raf-1 RBD agarose beads (20 µl) mixed with 250 µg clarified lysate of transfected ST88-14 cells in magnesium-containing lysis buffer (25 mM HEPES pH 7.5, 150 mM NaCl, 10 mM MgCl2, 1 mM EDTA, 1% Igepal CA-630, 10% glycerol); bound proteins detected by blot for Myc or HA tag; for Myc-H-Ras, cells with or without doxycycline-induced DN R-Ras or DN H-Ras; only the target purified. The following applies: remark: other sources report otherwise.

B1: Myc-tagged wild-type R-Ras2, P62070 1-204 (protein)
chain: MAAAGWRDGSGQEKYRLVVVGGGGVGKSALTIQFIQSYFVTDYDPTIEDSYTKQCVIDDRAARLDILDTAGQEEFGAMREQYMRTGEGFLLVFSVTDRGSFEEIYKFQRQILRVKDRDEFPMILIGNKADLDHQRQVTQEEGQQLARQLKVTYMEASAKIRMNVDQAFHELVRVIRKFQEQECPPSPEPTRKEKDKKGCHCVIF
Take B1: the binding result is “binds”.
